Experimental data: PubChem BioAssay AID504764 (Drosophila RNAi Screening Center, 2011)

Assay: 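Knock-downs that raise or lower a Notch target reporter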 (primary screen)
System: Drosophila Kc167 cells
Reagents: long dsRNA against Drosophila genes
Timing: about 5 days (4 days dsRNA, then 24 h after transfection)
Treatment: transfection of constitutively active membrane-tethered Notch lacking the extracellular domain, read 24 h later
Read-out: 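Light from a Notch-responsive E(spl)m3 luciferase reporter under active Notch, with control-promoter and no-Notch reporter wells to normalise; raw counts from paired wells a and b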
Reading the numbers: induced reporter light, run 1, well a and induced reporter light, run 1, well b: higher = more light from the Notch target reporter with active Notch; control promoter light, run 1, well a and control promoter light, run 1, well b: higher = more light from the viral control promoter (cell number, transfection, viability); uninduced reporter light, run 1, well a: higher = more light from the Notch target reporter without active Notch
Rule for the call: 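Hit if the duplicate-averaged log2 ratio of induced to control-promoter light gives a plate-wise z beyond ±2, or induced to uninduced beyond ±1.8; weak-control or discordant-duplicate wells dropped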
Calls: active = modifier hit (raised or lowered Notch signal); inactive = not a hit
In all, the deposit lists about 22,000 reagents; below is an unselected part of those that have a named target and a result. In the full data, 403 (1.9%) are marked active. 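Unnormalised raw counts per well; ratio z-scores behind the hit calls and whether each hit raises or lowers signal are not deposited.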 Not given: the amount of reagent.

no.	predicted target	amplicon	induced reporter light, run 1, well a	induced reporter light, run 1, well b	control promoter light, run 1, well a	control promoter light, run 1, well b	uninduced reporter light, run 1, well a	activity call
1	CG4968	DRSC02794	3.14e5	2.82e5	2.52e5	2.61e5	22485	inactive
2	RSG7 (Regulator of G-protein signaling 7)	DRSC20274	1.19e5	77155	94825	92325	12335	inactive
3	CG11696	DRSC19417	1.43e5	1.08e5	1.61e5	1.70e5	12290	inactive
4	Ankle2	DRSC20105	1.38e5	1.37e5	1.11e5	66715	10035	inactive
5	Ankle2	DRSC20106	49270	45620	70705	48065	7310	inactive
6	CG5984	DRSC15930	1.39e5	1.42e5	2.11e5	1.51e5	12430	inactive
7	TM9SF4 (Transmembrane 9 superfamily protein member 4)	DRSC01888	2.80e5	2.19e5	2.29e5	2.57e5	17250	inactive
8	TM9SF4 (Transmembrane 9 superfamily protein member 4)	DRSC02537	1.03e5	1.32e5	1.20e5	1.61e5	10678	inactive
9	Or7a (Odorant receptor 7a)	DRSC18691	1.62e5	1.57e5	2.69e5	2.49e5	11642	inactive
10	CG4629	DRSC00659	1.07e5	1.30e5	1.09e5	62965	8710	inactive
11	Asciz (ASCIZ zinc finger protein)	DRSC08421	1.17e5	1.28e5	1.94e5	1.50e5	9885	inactive
12	SmD1 (Small ribonucleoprotein particle protein SmD1)	DRSC09800	79815	1.07e5	1.32e5	92695	3360	inactive
13	cyr (cypher)	DRSC18017	1.35e5	1.35e5	1.83e5	1.96e5	8575	inactive
14	cyr (cypher)	DRSC18018	1.75e5	1.64e5	3.15e5	2.50e5	11810	inactive
15	cyr (cypher)	DRSC18021	1.32e5	1.39e5	2.33e5	2.35e5	9970	inactive
16	CG15082	DRSC06513	35555	33190	57920	33470	4340	inactive
17	Hpd (4-hydroxyphenylpyruvate dioxygenase)	DRSC11670	1.54e5	1.20e5	73360	79480	10282	inactive
18	CG15107	DRSC06534	1.28e5	1.10e5	1.10e5	1.62e5	10000	inactive
19	Atg18b (Autophagy-related 18b)	DRSC03108	1.07e5	1.08e5	83935	82890	6650	inactive
20	Prosalpha7 (Proteasome alpha7 subunit)	DRSC07516	27005	22682	17060	15638	2265	inactive
21	GatA (Glutamyl-tRNA amidotransferase, subunit A)	DRSC16956	1.65e5	2.02e5	2.11e5	2.19e5	15960	inactive
22	Pglym87 (Phosphoglyceromutase 87)	DRSC15252	1.27e5	1.38e5	69555	76390	9040	inactive
23	CG8993	DRSC08616	84815	1.23e5	1.34e5	1.25e5	8610	inactive
24	QC (Glutaminyl cyclase)	DRSC09736	1.09e5	72840	73760	21805	9930	inactive
25	Sgp (Sgroppino)	DRSC02195	1.88e5	2.48e5	2.05e5	2.11e5	22050	inactive
26	hob (hobbit)	DRSC08426	1.41e5	1.27e5	1.06e5	34430	11320	inactive
27	Swim (Secreted Wg-interacting molecule)	DRSC04334	1.80e5	1.59e5	1.80e5	1.98e5	15340	inactive
28	Cyp4ad1 (Cytochrome P450 4ad1)	DRSC07369	1.98e5	1.69e5	1.80e5	1.77e5	18400	inactive
29	CG4390	DRSC15572	1.65e5	1.65e5	1.56e5	1.80e5	14760	inactive
30	snz (snazarus)	DRSC17969	1.57e5	1.40e5	2.39e5	3.14e5	10600	inactive
31	Cog4 (Component of oligomeric golgi complex 4)	DRSC03057	1.79e5	1.81e5	1.53e5	1.48e5	11790	inactive
32	CG12159	DRSC06114	1.59e5	1.44e5	2.34e5	1.94e5	14215	inactive
33	PGRP-SB2 (Peptidoglycan recognition protein SB2)	DRSC11092	2.40e5	2.42e5	3.11e5	2.36e5	9570	inactive
34	Rsf1 (Repressor splicing factor 1)	DRSC03423	1.08e5	1.38e5	74885	1.03e5	19320	inactive
35	Rsf1 (Repressor splicing factor 1)	DRSC21953						inactive

No new results follow: entries from further up.
no.	predicted target	amplicon	induced reporter light, run 1, well a	induced reporter light, run 1, well b	control promoter light, run 1, well a	control promoter light, run 1, well b	uninduced reporter light, run 1, well a	activity call
10	CG4629	DRSC00659	1.07e5	1.30e5	1.09e5	62965	8710	inactive
11	Asciz (ASCIZ zinc finger protein)	DRSC08421	1.17e5	1.28e5	1.94e5	1.50e5	9885	inactive
12	SmD1 (Small ribonucleoprotein particle protein SmD1)	DRSC09800	79815	1.07e5	1.32e5	92695	3360	inactive
13	cyr (cypher)	DRSC18017	1.35e5	1.35e5	1.83e5	1.96e5	8575	inactive
14	cyr (cypher)	DRSC18018	1.75e5	1.64e5	3.15e5	2.50e5	11810	inactive
15	cyr (cypher)	DRSC18021	1.32e5	1.39e5	2.33e5	2.35e5	9970	inactive
